This is an account of results in article doi:10.1101/2024.08.26.609654.

Sequences of proteins named here, by UniProt entry; tags and fusion partners are left off.
UniProt Q15648: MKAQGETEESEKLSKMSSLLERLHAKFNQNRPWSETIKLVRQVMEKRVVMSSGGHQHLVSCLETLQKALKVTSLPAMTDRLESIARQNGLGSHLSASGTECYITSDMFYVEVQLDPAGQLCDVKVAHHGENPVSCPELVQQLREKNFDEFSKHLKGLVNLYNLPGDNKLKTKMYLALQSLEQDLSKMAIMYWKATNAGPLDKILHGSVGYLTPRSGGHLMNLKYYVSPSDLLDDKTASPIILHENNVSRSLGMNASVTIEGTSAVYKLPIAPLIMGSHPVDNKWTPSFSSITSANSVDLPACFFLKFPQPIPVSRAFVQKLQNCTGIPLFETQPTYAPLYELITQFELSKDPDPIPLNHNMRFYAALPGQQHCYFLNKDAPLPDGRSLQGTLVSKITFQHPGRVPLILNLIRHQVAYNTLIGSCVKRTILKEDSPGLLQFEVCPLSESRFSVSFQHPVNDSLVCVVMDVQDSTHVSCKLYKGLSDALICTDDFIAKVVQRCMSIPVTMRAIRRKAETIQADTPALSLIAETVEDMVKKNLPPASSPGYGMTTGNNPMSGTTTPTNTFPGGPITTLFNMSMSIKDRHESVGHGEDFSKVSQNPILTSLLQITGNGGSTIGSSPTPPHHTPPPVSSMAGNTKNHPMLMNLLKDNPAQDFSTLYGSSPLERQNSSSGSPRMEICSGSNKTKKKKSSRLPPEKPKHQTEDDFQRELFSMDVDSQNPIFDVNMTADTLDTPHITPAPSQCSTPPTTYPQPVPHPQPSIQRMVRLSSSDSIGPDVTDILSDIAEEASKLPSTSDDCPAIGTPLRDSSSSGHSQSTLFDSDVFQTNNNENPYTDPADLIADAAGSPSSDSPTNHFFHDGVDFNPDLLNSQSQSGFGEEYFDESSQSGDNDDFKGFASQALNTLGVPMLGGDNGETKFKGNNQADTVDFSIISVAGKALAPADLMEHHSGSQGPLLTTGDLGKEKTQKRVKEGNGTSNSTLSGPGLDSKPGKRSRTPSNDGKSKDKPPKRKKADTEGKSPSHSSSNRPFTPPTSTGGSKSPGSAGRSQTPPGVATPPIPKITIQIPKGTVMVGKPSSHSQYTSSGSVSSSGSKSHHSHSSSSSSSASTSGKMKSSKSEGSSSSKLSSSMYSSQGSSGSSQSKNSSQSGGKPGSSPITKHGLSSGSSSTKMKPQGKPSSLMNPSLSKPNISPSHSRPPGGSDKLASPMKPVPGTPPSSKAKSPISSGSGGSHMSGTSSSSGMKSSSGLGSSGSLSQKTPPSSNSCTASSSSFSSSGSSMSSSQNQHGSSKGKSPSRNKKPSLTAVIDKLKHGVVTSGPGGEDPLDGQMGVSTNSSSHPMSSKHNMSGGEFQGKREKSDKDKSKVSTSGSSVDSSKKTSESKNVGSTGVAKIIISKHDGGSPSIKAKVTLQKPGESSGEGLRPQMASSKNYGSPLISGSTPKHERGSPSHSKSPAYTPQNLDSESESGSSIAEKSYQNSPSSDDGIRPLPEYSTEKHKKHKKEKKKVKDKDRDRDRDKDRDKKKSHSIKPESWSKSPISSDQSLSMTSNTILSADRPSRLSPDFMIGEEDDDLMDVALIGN
UniProt P50750: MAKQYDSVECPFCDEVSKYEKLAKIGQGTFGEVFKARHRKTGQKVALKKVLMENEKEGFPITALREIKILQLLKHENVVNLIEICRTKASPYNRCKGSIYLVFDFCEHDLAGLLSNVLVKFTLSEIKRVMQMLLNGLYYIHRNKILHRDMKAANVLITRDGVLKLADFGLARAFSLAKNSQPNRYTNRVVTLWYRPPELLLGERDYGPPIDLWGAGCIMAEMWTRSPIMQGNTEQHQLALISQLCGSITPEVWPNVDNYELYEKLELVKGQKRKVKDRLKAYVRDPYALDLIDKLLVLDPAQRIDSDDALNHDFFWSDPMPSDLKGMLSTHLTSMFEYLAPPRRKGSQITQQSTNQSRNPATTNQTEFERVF
UniProt P24863: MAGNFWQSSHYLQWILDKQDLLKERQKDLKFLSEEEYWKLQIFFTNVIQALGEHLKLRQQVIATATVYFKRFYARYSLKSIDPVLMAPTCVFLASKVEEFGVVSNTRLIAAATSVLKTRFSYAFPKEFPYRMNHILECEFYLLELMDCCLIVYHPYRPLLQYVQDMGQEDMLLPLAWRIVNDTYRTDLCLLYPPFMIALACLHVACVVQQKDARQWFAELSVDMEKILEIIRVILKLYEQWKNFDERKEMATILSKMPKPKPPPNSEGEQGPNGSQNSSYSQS

For one experiment, the target named is 3×Flag-MED1 (UniProt Q15648). Nature of the experiment: co-IP.
For a further experiment, the target named is T1, 3×Flag-MED26 (UniProt O95402).
T1 sequence: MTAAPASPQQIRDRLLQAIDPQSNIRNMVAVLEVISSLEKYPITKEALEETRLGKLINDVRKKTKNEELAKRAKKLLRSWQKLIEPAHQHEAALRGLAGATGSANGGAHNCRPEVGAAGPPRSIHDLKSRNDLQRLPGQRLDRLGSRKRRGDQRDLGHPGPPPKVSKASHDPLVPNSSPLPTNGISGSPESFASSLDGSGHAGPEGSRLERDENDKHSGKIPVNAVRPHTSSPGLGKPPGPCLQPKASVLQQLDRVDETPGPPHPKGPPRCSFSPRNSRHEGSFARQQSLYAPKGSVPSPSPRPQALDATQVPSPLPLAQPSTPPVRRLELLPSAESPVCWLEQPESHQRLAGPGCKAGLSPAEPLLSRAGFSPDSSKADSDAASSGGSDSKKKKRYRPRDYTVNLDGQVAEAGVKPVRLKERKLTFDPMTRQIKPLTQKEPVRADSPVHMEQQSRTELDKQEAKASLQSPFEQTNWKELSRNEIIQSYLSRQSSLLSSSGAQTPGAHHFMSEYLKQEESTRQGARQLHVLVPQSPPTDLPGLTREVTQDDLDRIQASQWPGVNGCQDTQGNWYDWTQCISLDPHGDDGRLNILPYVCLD
Nature of the experiment: co-IP.

These are yes or no findings as the source states them, for the method shown. Binding seen in cells or lysates may run through a third protein. Some results given as binding are weak or reduced against the parent protein; the word gives no strength. For part of these data: Tags and fused reporters may be left off the sequences shown.

In the case of CDK9 (from UniProt P50750 1-372), the binding result with 3×Flag-MED1 and with 3×Flag-MED26 was “binds” throughout.

On to CCNC1 (from UniProt P24863 1-283), for which the binding entry with 3×Flag-MED1 is recorded as “binds”.
